Measured values taken from paper PMC11896966.
The exact form of at least one protein or probe is not confirmed.

Assays:
[1] = test system: GST-SlNOR-like1 (Solanum lycopersicum (tomato)); assay: EMSA; details: EMSA with biotin-labelled oligonucleotides; pH and temperature not given; recombinant protein; protein details: GST (pGEX); label: biotin
[2] = molecular target: GST-SlNOR (NAC domain-containing truncation) (Solanum lycopersicum (tomato)) (UniProt A0A3Q7J5X6); assay: EMSA; details: EMSA with biotin-labelled oligonucleotides; pH and temperature not given; recombinant protein; protein details: GST (pGEX); label: biotin

| Sequence | binding result [1] | binding result [2] |
| --- | --- | --- |
| CCCCTAAGTATTATCAGAACACACGTAAATGAAAGGGCGACAGATATTTC (double strand) [SlABCG8 promoter probe wild] | binds | binds |
| GATTCGTAATTTTACAATGTAATGTGCATTTACGTAATCAAGTTATATGC (double strand) [SlABCG9 promoter probe wild] | binds | binds |
| TATTATACTACTAGTCAATAACACGCAATGCATACATGACTTAATATCTT (double strand) [SlGRP92 promoter probe wild] | binds | binds |
| GTACAAATAGTCAAGTTTACATTACGTATCCAAACTTTATGTCATTATTA (double strand) [SlABCG23 promoter probe wild] | binds | binds |
| ACATTTCGTAGAGAATTTCATTACGTCTACTTTAATATCTTTAATTTTCT (double strand) [SlCER1 promoter probe wild] | binds | binds |
